In PMC12463113:
Results are given in words; binding and its absence hold for the method and conditions named. In cells and extracts the contact can be indirect. Some results given as binding are weak or reduced against the parent protein; the word gives no strength.

Protein sequences, listed by entry. Tags and fused reporters are not part of them.
UniProt P14618: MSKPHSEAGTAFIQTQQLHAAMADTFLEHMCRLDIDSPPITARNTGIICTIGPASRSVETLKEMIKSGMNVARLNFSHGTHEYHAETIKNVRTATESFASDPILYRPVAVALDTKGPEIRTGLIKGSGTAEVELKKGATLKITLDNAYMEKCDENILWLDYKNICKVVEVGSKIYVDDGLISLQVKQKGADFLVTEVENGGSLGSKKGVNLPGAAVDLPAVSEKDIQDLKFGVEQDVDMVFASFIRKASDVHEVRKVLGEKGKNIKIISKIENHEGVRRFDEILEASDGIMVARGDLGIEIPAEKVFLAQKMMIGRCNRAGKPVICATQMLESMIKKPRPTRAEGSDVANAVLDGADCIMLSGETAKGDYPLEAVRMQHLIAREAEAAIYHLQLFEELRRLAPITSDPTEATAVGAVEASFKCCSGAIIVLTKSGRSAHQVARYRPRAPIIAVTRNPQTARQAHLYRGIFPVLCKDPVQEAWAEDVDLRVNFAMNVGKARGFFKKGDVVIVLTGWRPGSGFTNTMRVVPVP
UniProt Q16665: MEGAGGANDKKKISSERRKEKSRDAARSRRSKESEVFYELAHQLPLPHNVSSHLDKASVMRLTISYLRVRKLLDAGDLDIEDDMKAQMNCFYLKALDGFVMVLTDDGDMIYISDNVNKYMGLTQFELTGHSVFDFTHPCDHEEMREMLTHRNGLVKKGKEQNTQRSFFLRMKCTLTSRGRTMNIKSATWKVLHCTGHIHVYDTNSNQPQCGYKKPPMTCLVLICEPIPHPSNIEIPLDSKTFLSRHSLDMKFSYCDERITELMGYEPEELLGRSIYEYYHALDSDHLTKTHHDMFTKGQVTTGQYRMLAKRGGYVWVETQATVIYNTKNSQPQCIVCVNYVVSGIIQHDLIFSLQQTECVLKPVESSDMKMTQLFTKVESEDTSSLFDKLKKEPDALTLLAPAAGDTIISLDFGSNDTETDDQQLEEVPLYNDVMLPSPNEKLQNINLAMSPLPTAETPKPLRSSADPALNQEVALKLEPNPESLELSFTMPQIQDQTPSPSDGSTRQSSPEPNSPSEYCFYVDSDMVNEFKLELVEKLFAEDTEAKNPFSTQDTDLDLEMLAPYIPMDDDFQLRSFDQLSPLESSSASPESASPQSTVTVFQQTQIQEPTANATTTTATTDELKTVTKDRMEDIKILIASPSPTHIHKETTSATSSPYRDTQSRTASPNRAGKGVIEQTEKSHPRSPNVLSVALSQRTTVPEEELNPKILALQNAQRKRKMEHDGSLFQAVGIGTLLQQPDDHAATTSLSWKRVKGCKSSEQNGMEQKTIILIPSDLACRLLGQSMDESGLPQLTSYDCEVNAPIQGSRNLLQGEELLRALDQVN
UniProt Q8N371: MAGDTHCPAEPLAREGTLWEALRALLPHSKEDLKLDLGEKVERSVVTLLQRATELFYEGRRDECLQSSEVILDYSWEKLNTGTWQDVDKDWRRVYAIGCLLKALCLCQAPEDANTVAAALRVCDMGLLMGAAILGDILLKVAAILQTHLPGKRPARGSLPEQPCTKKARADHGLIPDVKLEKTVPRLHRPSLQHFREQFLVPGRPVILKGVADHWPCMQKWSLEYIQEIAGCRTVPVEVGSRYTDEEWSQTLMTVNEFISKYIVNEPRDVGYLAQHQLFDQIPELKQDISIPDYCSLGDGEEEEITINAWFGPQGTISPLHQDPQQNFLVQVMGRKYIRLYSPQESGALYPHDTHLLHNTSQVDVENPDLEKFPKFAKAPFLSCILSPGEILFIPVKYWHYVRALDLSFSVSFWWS

Target: PKM2 (human (endogenous in breast cancer cell lines)) (UniProt P14618)
Assay: co-IP; BC cell lysates in IP lysis buffer (25 mM Tris-HCl pH 7.4, 150 mM NaCl, 1% NP-40, 1 mM EDTA, 5% glycerol), 2 µg primary antibody or IgG with Protein A/G PLUS-Agarose, 4 °C overnight, immunoblot; cells also with LINC01094 overexpression or knockdown

**Q.** How did the binding turn out when HIF‐1α (from UniProt Q16665 1-826) was run?
**A.** The binding was “binds”.

**Q.** With “JMJD5 (from UniProt Q8N371 1-416) (enzyme)” as the substance, how does the binding read?
**A.** Its binding is “binds”.
